{"source": "patent US20100009970A1", "about": "“COMPOSITIONS AND METHODS FOR TREATMENT OF VIRAL DISEASES” (Combinatorx (Singapore) Pte. Ltd., priority 2008, published 2010)", "tested_on": "Huh7 cells expressing a subgenomic RNA replicon of Con1 (genotype 1b) sequence origin", "experiment": "microbe, parasite or virus in culture", "settings": "Hepatitis C virus, Huh-7"}
{"smiles": "O=C(CCCN1CCC2(CC1)C(=O)NCN2c1ccccc1)c1ccc(F)cc1", "note": "[Spiperone, reference compound]", "values": [{"measurement": "IC50", "value": 7.21, "unit": "µM"}]}
